These are yes or no findings as the source states them, for the method shown. In cells and extracts the contact can be indirect. Some results given as binding are weak or reduced against the parent protein; the word gives no strength.
Target: 3HA-3FLAG-CIAO3-S161I (human) (UniProt Q9H6Q4)
Test: co-IP; anti-HA beads on whole cell extracts of Flp-In 293 cells expressing the 3HA-3FLAG-tagged bait (NUBP2, CIAO3 wildtype or S161I, ERCC2 wildtype or mutant); 100 mM Tris-HCl pH 8.0, 150 mM NaCl, 5% glycerol, 0.1% NP-40, 4 °C; immunoblot of endogenous partners; cells untreated or treated with FAC, DFO (3 or 8 h), tBHP (4 h), 1% O2 (16 h), nontarget siRNA or 1% formaldehyde

Chains of the proteins cited; added tags and fusions are not shown. Lines headed by an entry give the natural chain unless they say otherwise; changes in a name come on top.
UniProt Q9H6Q4: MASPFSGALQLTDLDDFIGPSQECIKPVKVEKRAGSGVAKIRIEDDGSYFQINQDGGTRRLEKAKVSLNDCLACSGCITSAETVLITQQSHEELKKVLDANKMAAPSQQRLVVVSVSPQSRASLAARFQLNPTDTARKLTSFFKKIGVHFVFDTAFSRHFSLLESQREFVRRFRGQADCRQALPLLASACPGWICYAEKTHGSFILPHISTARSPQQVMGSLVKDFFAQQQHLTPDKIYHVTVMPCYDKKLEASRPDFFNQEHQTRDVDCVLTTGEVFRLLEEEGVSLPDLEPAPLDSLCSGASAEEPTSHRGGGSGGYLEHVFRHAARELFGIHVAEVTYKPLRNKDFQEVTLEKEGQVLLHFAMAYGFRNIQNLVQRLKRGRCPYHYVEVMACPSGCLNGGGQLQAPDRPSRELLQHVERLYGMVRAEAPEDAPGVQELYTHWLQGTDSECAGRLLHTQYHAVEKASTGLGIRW

binding: binds
Substance: ERCC2, endogenous (from UniProt P18074 1-760)

Reference: article PMC9243173
